Values from PubChem BioAssay AID1259308 (NCATS, 2017).

- Screen: 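Genes whose loss raises luciferase production in HEK293 cells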 (primary screen)
- Cells: human HEK293 embryonic kidney cells stably expressing firefly luciferase (HEK-CMV-Luc2-Hygro)
- Reagent: single siRNA against human genes, 0.8 pmol siRNA per well
- Time to read-out: 72 h
- Detection: 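Reporter luminescence and viable-cell signal on separate replicate plates, given as percent of non-targeting control and median/MAD z-scores, plus per-cell luciferase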
- Scale: total luciferase, z-score and total luciferase, % of control: higher = more reporter protein produced; luciferase per cell, z-score: higher = more reporter output per viable cell; viable cells, % of control: higher = more viable cells
- Call rule: 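An siRNA counts as active if its total luciferase robust z-score exceeds 3; genes with two or more such siRNAs out of three were retested with fresh siRNAs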
- Calls: active = raised luciferase; inactive = no rise
Shown is a random part of about 59,000 reagents tested. Of all reagents, about 1,510 (2.6%) were called active. 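Calls use total luciferase alone and ignore viability, so some active siRNAs may act by altering cell number.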 No sequences are given here.

gene,PubChem SID,"total luciferase, z-score","total luciferase, % of control","luciferase per cell, z-score","viable cells, % of control",outcome
GRM8 (glutamate metabotropic receptor 8),SID160774598,-0.675,68.5,-0.338,83.6,inactive
GRM8 (glutamate metabotropic receptor 8),SID160774599,-0.462,72.7,-0.359,89.3,inactive
GRM8 (glutamate metabotropic receptor 8),SID160774600,-0.177,78.4,-0.153,91.2,inactive
CCDC77 (coiled-coil domain containing 77),SID160752150,-0.462,72.7,-0.304,88,inactive
CCDC77 (coiled-coil domain containing 77),SID160752151,0.119,84.3,-0.132,97.5,inactive
CCDC77 (coiled-coil domain containing 77),SID160752153,-0.0983,79.9,-0.374,98.6,inactive
PAGE3 (PAGE family member 3),SID160757737,0.425,90.3,0.931,79,inactive
PAGE3 (PAGE family member 3),SID160757738,0.835,98.5,0.62,93.5,inactive
PAGE3 (PAGE family member 3),SID160757739,0.281,87.5,-0.261,105,inactive
ELL (elongation factor for RNA polymerase II),SID160719688,-2.26,37,-1.09,55,inactive
ELL (elongation factor for RNA polymerase II),SID160719689,-0.184,78.2,-0.000196,87.4,inactive
ELL (elongation factor for RNA polymerase II),SID160719690,-0.432,73.3,-0.0527,83,inactive
MSH3 (mutS homolog 3),SID160731247,-0.818,65.6,-1.47,108,inactive
MSH3 (mutS homolog 3),SID160777459,1.88,119,0.894,105,inactive
MSH3 (mutS homolog 3),SID160777461,0.0414,82.7,-0.105,95,inactive
IFI6 (interferon alpha inducible protein 6),SID160768048,0.0963,83.8,0.291,86.7,inactive
IFI6 (interferon alpha inducible protein 6),SID160768055,1.82,118,2.28,72.3,inactive
IFI6 (interferon alpha inducible protein 6),SID160768066,0.336,88.6,0.548,85.7,inactive
BATF (basic leucine zipper ATF-like transcription factor),SID160728680,0.469,91.2,0.196,96.8,inactive
BATF (basic leucine zipper ATF-like transcription factor),SID160728681,-1.46,52.9,-1.09,78.7,inactive
BATF (basic leucine zipper ATF-like transcription factor),SID160730446,0.914,100,1.65,72.4,inactive
AGRP (agouti related neuropeptide),SID160715582,-2.22,37.7,-3,92.8,inactive
AGRP (agouti related neuropeptide),SID160715592,1.33,108,0.939,94.6,inactive
AGRP (agouti related neuropeptide),SID160723644,0.956,101,0.723,93.2,inactive

2 entries from above in another layout.
{"gene":"GRM8 (glutamate metabotropic receptor 8)","PubChem SID":"SID160774599","total luciferase, z-score":-0.462,"total luciferase, % of control":72.7,"luciferase per cell, z-score":-0.359,"viable cells, % of control":89.3,"outcome":"inactive"}
{"gene":"GRM8 (glutamate metabotropic receptor 8)","PubChem SID":"SID160774600","total luciferase, z-score":-0.177,"total luciferase, % of control":78.4,"luciferase per cell, z-score":-0.153,"viable cells, % of control":91.2,"outcome":"inactive"}
